# This is one part of the list. These are further read-outs of the screen, such as a control signal, another cell line or another target. No call is given for them. The list favours compounds with an active or inconclusive main result. Potencies come from curve fits of mixed quality, noted in brackets.
# Test: qHTS Assay for Lipid Storage Modulators in Drosophila S3 Cells;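 for cell number change: cells counted by Cell Tracker Red CMTPX staining in the red channel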
# Details: BODIPY lipid droplet fluorescence, 18-24 h; for cell number change: measured here: cell count max response, cells fed with added oleic acid
# How it was run: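 Drosophila S3 cells loaded with oleic acid (400 uM, as added) and compounds at several concentrations; lipid droplets imaged by 488-nm laser-scanning cytometry, 500–530 nm intensity and object ratio to cell channel. Percent activity normalized to 20 uM Triacsin C.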
# [1] = measured here: lipid fluorescence (Fed channel) AC50, cells fed with added oleic acid
# [2] = measured here: cell number channel AC50, cells fed with added oleic acid
SMILES,cell number change,AC50 [1],AC50 [2]
COC(=O)C(CCSC)NC(=O)CNS(=O)(=O)c1ccc(Br)cc1 (stereo not drawn),17.5%,"29.1 µM [rising, single point]",
Clc1ccc(Sc2oc(/C=N/n3cnnc3)cc2Br)cc1,3%,,
O=C(c1c[nH]c2ccc(S(=O)(=O)N3CCC4(CC3)OCCO4)cc2c1=O)N1CCOCC1,0.323%,"25.9 µM [falling, partial curve]",
COc1ccc(NC(=O)[C@H](C)NC(=O)[C@@H]2Cc3ccccc3CN2C(=O)OC(C)(C)C)cc1,21.8%,,
O=C(Nc1ccccc1CC[N+](=O)[O-])N1CCN(c2ccccc2)CC1,49%,,"23.1 µM [rising, single point]"
N/C(=N\OC(=O)COc1ccc(Cl)cc1Br)c1cccnc1,15.1%,,"6.51 µM [rising, single point]"
O=c1[nH]c(NC2CCCCC2)c([N+](=O)[O-])c(=O)[nH]1,-38.5%,"14.6 µM [falling, partial curve, poor fit]","11.6 µM [falling, partial curve, poor fit]"
CCn1nc(C)c(/C=N/NC(=O)Cn2nnc(N)n2)c1C,-15.6%,"0.82 µM [falling, full curve, poor fit]",
COc1cc(C(=S)N2CCN(c3ccccc3Cl)CC2)cc(O)c1O,-28.7%,"20.6 µM [falling, single point]",
N#Cc1c2c(c(NCCCN3CCOCC3)n3c1nc1ccccc13)CCC2,56.7%,,
Cc1cccc(N(Cc2ccccc2)C(=O)c2ccccc2F)c1,4.03%,,
O=C1CCN(c2ccc([N+](=O)[O-])cc2F)CC1,-6.13%,"2.06 µM [falling, single point]",
COc1cc(NS(=O)(=O)c2ccc(Nc3nc(-c4cccc([N+](=O)[O-])c4)cs3)cc2)nc(OC)n1,-33.8%,"29.1 µM [falling, partial curve]","32.6 µM [falling, single point]"
Cc1[nH]c2ccccc2c1/C=N/Nc1ccccn1,,,"0.116 µM [rising, single point]"
O=C(CSc1nc2ccccc2c(=O)n1-c1cccc(C(F)(F)F)c1)NC1CC1,,,"1.64 µM [rising, partial curve]"
C=CCNC(=S)N/N=C/c1ccc(C)cc1C,26.2%,"0.092 µM [rising, full curve]",
N/C(=N\OC(=O)Cc1ccccc1)c1ccc([N+](=O)[O-])cc1,1.22%,,"0.13 µM [rising, full curve, poor fit]"
Nc1c(C(=O)c2cccs2)sc2nsc(SCCN3CCCCC3)c12,,"32.6 µM [falling, single point]",
COc1ccc(S(=O)(=O)Nc2ccc3cn[nH]c3c2)cc1[N+](=O)[O-],6.92%,"3.66 µM [falling, full curve]",
CC(C)(C)NC(=O)CSc1nc2ccc(NC(=O)CSc3nnnn3Cc3ccccc3)cc2s1,-38.2%,"14.6 µM [falling, single point]","11.6 µM [falling, single point]"

SMILES,cell number change,AC50 [1],AC50 [2]
O=C(CSc1ccc(-c2ccco2)nn1)c1cccc([N+](=O)[O-])c1,,"0.58 µM [rising, single point]","0.731 µM [rising, single point]"
O=C(Nc1ccc(Cl)c(S(=O)(=O)N2CCOCC2)c1)c1n[nH]c(=O)c2ccccc12,6.84%,"0.058 µM [rising, partial curve]",
Cc1cccnc1NC(=O)c1cccc(S(=O)(=O)N2CCN(c3ccccc3)CC2)c1,19%,,
CCn1ccnc1C(O)c1cccc2ccccc12 (stereo not drawn),-5.61%,"0.00461 µM [rising, full curve, poor fit]",
O=C(CC1SC(=Nc2ccccc2)N(CCc2c[nH]c3ccccc23)C1=O)Nc1ccccc1F (stereo not drawn),1.1%,"5.8 µM [rising, single point]","5.8 µM [rising, single point]"
Cc1cc(OCC(=O)NCC2CCC(C(=O)O)CC2)c2c(C)c(Cc3ccccc3)c(=O)oc2c1 (stereo not drawn),0.45%,"0.58 µM [falling, partial curve, poor fit]",
COc1cc(OC)cc(C(=O)NCC(=O)OCC(=O)c2cc(OC)ccc2OC)c1,,"16.4 µM [falling, partial curve, poor fit]",
CCCCn1c(SCC(N)=O)nnc1-c1cc(OC)c(OC)c(OC)c1,20.1%,"8.2 µM [falling, partial curve, poor fit]","0.651 µM [falling, full curve, poor fit]"
O=C(CCl)NCCN1C(=O)S/C(=C\c2cccnc2)C1=O,16.5%,"20.6 µM [rising, single point]",
Clc1ccc(CSc2ncn[nH]2)cc1,-10.3%,,
Cn1c(SCC(=O)N2CCCC2)nnc1-c1ccc(S(=O)(=O)N2CCCC2)cc1,0.196%,"3.26 µM [falling, single point]",
Fc1ccc(N2CCN(Cc3ccccn3)CC2)cc1,-3.66%,"0.58 µM [rising, single point]",
CC1CCCCC1NC(=O)COc1ccc(-n2cnnn2)cc1 (stereo not drawn),,"6.51 µM [rising, single point]",
CC1CCCN(c2nc3ccsc3c(=O)s2)C1 (stereo not drawn),,,"6.51 µM [rising, single point]"
Cc1cccc(NC(=O)c2cnc3ccccn3c2=O)c1,,"0.731 µM [rising, full curve]","0.92 µM [rising, full curve]"
CCCCC(=O)NC(c1ccc(C(C)C)cc1)c1ccc2cccnc2c1O (stereo not drawn),,"14.6 µM [falling, partial curve]",
COc1cc2c(cc1OC)C(c1c(Cl)cccc1Cl)NC(=O)C2 (stereo not drawn),26.7%,,
CCC(Sc1nc2n[nH]c(C)c2c(=N)n1-c1cccc(Cl)c1C)C(=O)N(CC)CC (stereo not drawn),-35.9%,,"9.2 µM [falling, partial curve]"
C=C(C)C(=O)OCC(C)C,23%,"1.16 µM [falling, single point]","0.651 µM [falling, single point]"
O=C(NCC(c1cccs1)N1CCOCC1)c1ccc(Cl)nc1 (stereo not drawn),4.93%,"29.1 µM [rising, single point]",

# Some of the entries above in a different format.
SMILES	cell number change	AC50 [1]	AC50 [2]
O=C(CCl)NCCN1C(=O)S/C(=C\c2cccnc2)C1=O	16.5%	20.6 µM [rising, single point]	
Clc1ccc(CSc2ncn[nH]2)cc1	-10.3%		
Cn1c(SCC(=O)N2CCCC2)nnc1-c1ccc(S(=O)(=O)N2CCCC2)cc1	0.196%	3.26 µM [falling, single point]	
Fc1ccc(N2CCN(Cc3ccccn3)CC2)cc1	-3.66%	0.58 µM [rising, single point]	
CC1CCCCC1NC(=O)COc1ccc(-n2cnnn2)cc1 (stereo not drawn)		6.51 µM [rising, single point]	

# More structures follow.

SMILES,cell number change,AC50 [1],AC50 [2]
O=C(NC1CCCCC1)c1cccnc1Sc1ccccc1Cl,13.5%,"6.51 µM [rising, single point]",
COC(=O)c1nn(-c2cccc(Cl)c2)ccc1=O,-20.2%,,
COC(=O)c1cnc(SCc2ccc(Cl)cc2)n1C,20.7%,"1.3 µM [falling, full curve]","1.46 µM [falling, partial curve]"
Cc1c(NC(=O)c2cccc(NC(=O)c3ccco3)c2)cccc1C(=O)O,-23.9%,"29.1 µM [falling, single point]",
CCOc1ccccc1NC(=S)N1CCN(c2ccccc2)CC1,-34.1%,"10.3 µM [falling, partial curve]","13 µM [falling, single point]"
O=C(Nc1ccc(S(=O)(=O)Nc2ncccn2)cc1)c1ccc(Cl)c([N+](=O)[O-])c1,-6.59%,"23.1 µM [rising, single point]",
CCCCn1c(=N)n(CC(O)COc2ccc(C)cc2)c2ccccc21 (stereo not drawn),-37.5%,"25.9 µM [falling, single point]","18.4 µM [falling, single point]"
NCCNc1ccc([N+](=O)[O-])c(NC2CC2)c1,,"29.1 µM [rising, single point]","0.0058 µM [falling, full curve, poor fit]"
COc1ccc(S(=O)(=O)NC2CCCC2)c(Cl)c1Cl,-9.64%,,"0.731 µM [falling, full curve]"
O=C(/C=C/c1ccc(-c2ccccc2[N+](=O)[O-])o1)c1ccccc1,-47.4%,"1.84 µM [falling, partial curve]","29.1 µM [falling, single point]"
O=C(N/N=C/c1ccc(O)c(O)c1)N/N=C/c1ccc(O)c(O)c1,-10.5%,,
O=C(Nc1ccnn1C1CCN(Cc2cccc(OCCO)c2)CC1)c1cccc(F)c1,-7.43%,"29.1 µM [rising, single point]","0.0731 µM [rising, full curve, poor fit]"
CC(=O)Nc1ccc(N(C(=O)Cc2cccs2)C(C(=O)NC2CCCC2)c2ccncc2)cc1 (stereo not drawn),-26.9%,"0.116 µM [rising, single point]",
C[C@@H](O)C1NC(=O)[C@H](CCCCN)NC(=O)c2cc([N+](=O)[O-])cc(F)c2NCCCC[C@@H](C(N)=O)NC1=O (stereo partly drawn),51.4%,"6.51 µM [rising, partial curve]","5.8 µM [rising, partial curve]"
Cc1ccc(C(=O)OCC(=O)Nc2sccc2C(N)=O)cc1NC(=O)c1ccco1,10.7%,,"1.84 µM [rising, partial curve]"
CCOC(=O)C1=C(C)NC(=O)NC1c1ccc(N2CCC(c3ccccc3)=N2)cc1 (stereo not drawn),4.16%,"20.6 µM [falling, partial curve, poor fit]",
O=S(=O)(c1ccc(-c2csc(-c3cccnc3)n2)cc1)N1CCCC1,-24.8%,"1.03 µM [rising, full curve]",
C/C(CCc1ccccc1)=N\NC(=O)CCc1ccccc1,-7.86%,"11.6 µM [rising, partial curve]","6.51 µM [falling, single point]"

# Reference: PubChem BioAssay AID2685 (National Center for Advancing Translational Sciences (NCATS), 2010)
